No constants are given. Whether binding was seen depends on the method and setting. For some assays here: A result given as binding can be weak or reduced; the word gives no strength.
Experiments:
serine proteinase CLIPB8 = test: SDS-stable complex formation (SDS-PAGE and immunoblot); Figure S3: serpin incubated with Factor Xa-activated proteinase; Western blot with rabbit antibodies against recombinant SRPN6Ag only; both purified
[1] = molecular target: Manduca sexta prophenoloxidase-activating proteinase 3 (PAP3), recombinant active form (M. sexta); test: SDS-stable complex formation (SDS-PAGE and immunoblot); proteinase and rAgSRPN6 mixed at molar ratio 1:10, room temperature 10 min; SDS reducing sample buffer 95°C 5 min; 10% SDS-PAGE; Western blot with antisera against the proteinase and against AgSRPN6; both purified

B1: recombinant Anopheles gambiae SRPN6 (rAgSRPN6), full-length, excluding the signal peptide (protein)
chain: QWNRYYTQAPQARYTPMVRTAQRVALRHSFETDGTPAPSTVRPRPPAPPTNAPSQLPALTPDNDAKISQLVVDFMMRISRTLPQQQSRTELFSPLSIITVANLLFLGSGGSTHEEFGKVLTPSSMNWKRMHQRYGNVLANLMSPEPIDSRRDQWRRQTCPRDDDYEDGEGGPAPKSQVIRVANGIFYQKDLPMRQQYVMLARSLYGALIQPIDPQASAASTALINRWVSDVTAGKIRNMLEGPLSPSSSVVIANALYFKAKWKTQFEPLVTRDAPFFPDGLDGPSYRVKMMSMSGCLPFYRVRDSLDTTIVGLPYRDDTSTMYLIQPANSSRTAIRRLQATLTGKMLDSWISQMKLQSTMVRLPKMHLRNSVDLLQSFQKLGFNSILSPAKSDLSNMIDSSSSAGPKPYVNQILHKLDLTIDEEGTEGAAATSALVDRIGSQRQFNGNAPFLIYLRHDATGLPLFYGPIFDPR
Q: How did the binding (serine proteinase CLIPB8) turn out when B1 was run?
A: no binding

Q: What about the binding [1] of the same binder?
A: binds
